# From publication PMC8266384, “A two-site flexible clamp mechanism for RET-GDNF-GFRα1 assembly reveals both conformational adaptation and strict geometric spacing” (Structure(London, England:1993), 2021)
# Key:
# [1] = biological target: zebrafish GFRα1a lacking domain D1 (zGFRα1a^ΔD1, zGFRα1a^151-353) (zebrafish) (UniProt Q98TT9); assay: crystal structure; purified zGDNF^mat.-zGFRα1a complex at 2.5 mg/ml; 100 mM Tris pH 8.0, 5 % PEG 20,000, 3.7 % acetonitrile, 100 mM NaCl; 22°C; both purified
# [2] = biological target: zebrafish GFRα1a domains D1-D3 (zGFRα1a^D1-3) (zebrafish) (UniProt Q98TT9); assay: cryo-EM structure; reconstituted zRGα1a complex crosslinked by GraFix (glutaraldehyde), 0.1 mg/ml; 20 mM Tris pH 7.0, 150 mM NaCl, 1 mM CaCl2; untilted and 30° tilted datasets; both purified
binder,measurement,setting,value
"zebrafish GDNF, N-terminally truncated (zGDNF^mat.) (ligand, UniProt Q98TU0 135-235, looked up, One protomer; it stands as a dimer in the complexes; also called GDNF1; not shown: Protein A, C-terminal, cleaved) VKGQGRGCLLKEIHLNVTDLDLGYRTKEELIFRYCSGPCHDAETNYDKILNNLTHNKKLDKDTPSRTCCRPIAFDDDISFLDDSLEYHTLKKHSAKKCACV",binding,[1],binds
same,binding,[2],binds

# Results are given in words; binding and its absence hold for the method and conditions named. A result given as binding can be weak or reduced; the word gives no strength.
